PubChem BioAssay AID686943 – Drosophila RNAi Screening Center – 2013
The deposit covers about 23,000 reagents; shown is a random part of those with a known target gene and a result. 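Extra replicates exist only for a retested subset of genes; insulin dose and duration not given; both raised and lowered dpERK matter.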 A plus sign joins genes that one reagent is predicted to hit. Not all columns of the deposit are shown. Not given: the amount of reagent, the time to read-out.

Aim: 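Search across the genome for regulators of signalling from receptor tyrosine kinase to ERK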 (primary screen)
System: Drosophila S2R+ haemocyte-like cells expressing YFP-tagged ERK (Rolled)
Knock-down reagent: long dsRNA against Drosophila genes
Treatment: insulin stimulation versus unstimulated cells; dose and duration not given
Read-out: 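Per-plate z-scores of phospho-ERK immunostaining normalised to YFP-tagged ERK, measured with and without insulin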
Direction: replicate 1, z-score of dpERK with insulin and replicate 2, z-score of dpERK with insulin: higher = more active ERK per ERK-YFP after insulin; replicate 1, z-score of dpERK under basal conditions: higher = more basal active ERK per ERK-YFP

no.	Target gene	amplicon	replicate 1, z-score of dpERK with insulin	replicate 2, z-score of dpERK with insulin	replicate 1, z-score of dpERK under basal conditions
1	cathD (GeneID 45268)	DRSC07588	-0.13	-0.1	-0.4
2	dpy (GeneID 318824)	DRSC00233	-0.31	0.06	0.27
3	dpy (GeneID 318824)	DRSC00234	-0.54	0.37	0.33
4	dpy (GeneID 318824)	DRSC00472	-0.32	-0.64	0.22
5	ttm3 (GeneID 35437)	DRSC03736	1.01	1.23	1.09
6	GstD10 (GeneID 59240)	DRSC15346	-0.54	0.81	-1.25
7	Lamtor4 (GeneID 38454)	DRSC08436	0.56	0.14	0.73
8	CG11192 (GeneID 37309)	DRSC06057	-0.32	-0.09	-0.79
9	Obp83a (GeneID 40737)	DRSC12362	-0.52	0.84	-0.09
10	ATPsyndelta (GeneID 31950)	DRSC18248	-0.02	-0.26	0.4
11	wntD (GeneID 41633)	DRSC16423	-1.57	0.3	0.28
12	CR43142 (GeneID 12798584)	DRSC00962	0.69	0.64	-0.61
13	pall (GeneID 39104)	DRSC10364	-0.81	-0.75	-0.17
14	Dh44-R1 (GeneID 36601)	DRSC07172	-0.59	0.32	-0.88
15	CG9119 (GeneID 38124)	DRSC08620	-1.41	-0.18	1.55
16	CG16787 (GeneID 37811)	DRSC04282	0.18	-0.58	0.11
17	Nf-YB (GeneID 35261)	DRSC02057	0.83	-0.02	-0.27
18	CG6661 + asRNA:CR42871	DRSC10687	0.21	0.45	0.11
19	Hex-t1 (GeneID 117364)	DRSC16701	-0.13	0	-1.02
20	Ravus (GeneID 41626)	DRSC15126	-0.38	0.3	0.19
21	CG6184 (GeneID 42345)	DRSC15986	-0.9	-0.21	-0.05
22	CG3347 (GeneID 33538)	DRSC00597	-0.25	-0.83	-0.69
23	Eip63E (GeneID 38433)	DRSC08658	1.15	0.14	0.03
24	UQCR-14 (GeneID 32586)	DRSC19870	-0.18	0.34	0.13
25	bgm (GeneID 44117)	DRSC03495	-0.69	-0.88	-2.68
26	ppk14 (GeneID 33887)	DRSC03238	0.99	-0.12	0.42
27	wuho (GeneID 31566)	DRSC18101	0.48	-0.23	-0.3
28	Roe1 (GeneID 36508)	DRSC07534	-0.31	0.15	-0.41
29	fra (GeneID 36377)	DRSC07621	-0.22	-0.58	-0.18
30	CG8654 (GeneID 37275)	DRSC07231	-0.73	0.02	0.1
31	CG1773 (GeneID 35999)	DRSC06688	0.12	-0.3	0.5
32	Nin (GeneID 33757)	DRSC02007	-0.83	0.14	-0.32
33	CG6845 (GeneID 38019)	DRSC08576	1.03	1.86	0.04
34	CG11164 (GeneID 32323)	DRSC19392	0.04	0.03	-0.29
35	Theg (GeneID 42585)	DRSC16023	0.42	-0.18	-0.51
36	TBC1d7 (GeneID 42869)	DRSC15985	-1.02	-0.12	0.58
37	chrb (GeneID 39284)	DRSC11335	0.86	-0.34	-1.66
38	H (GeneID 42445)	DRSC16692	0.88	0.22	0.85
39	CR31032 (GeneID 5740822)	DRSC22457	-0.3	-0.08	-0.16

4 entries from above, arranged by “replicate 1, z-score of dpERK under basal conditions”, lowest first.
Target gene	amplicon	replicate 1, z-score of dpERK with insulin	replicate 2, z-score of dpERK with insulin	replicate 1, z-score of dpERK under basal conditions
Roe1 (GeneID 36508)	DRSC07534	-0.31	0.15	-0.41
fra (GeneID 36377)	DRSC07621	-0.22	-0.58	-0.18
CG8654 (GeneID 37275)	DRSC07231	-0.73	0.02	0.1
CG1773 (GeneID 35999)	DRSC06688	0.12	-0.3	0.5
